{"sequences": {"note": "Protein sequences, listed by entry. Tags and fused reporters are not part of them.", "UniProt P18054, whole entry, looked up": "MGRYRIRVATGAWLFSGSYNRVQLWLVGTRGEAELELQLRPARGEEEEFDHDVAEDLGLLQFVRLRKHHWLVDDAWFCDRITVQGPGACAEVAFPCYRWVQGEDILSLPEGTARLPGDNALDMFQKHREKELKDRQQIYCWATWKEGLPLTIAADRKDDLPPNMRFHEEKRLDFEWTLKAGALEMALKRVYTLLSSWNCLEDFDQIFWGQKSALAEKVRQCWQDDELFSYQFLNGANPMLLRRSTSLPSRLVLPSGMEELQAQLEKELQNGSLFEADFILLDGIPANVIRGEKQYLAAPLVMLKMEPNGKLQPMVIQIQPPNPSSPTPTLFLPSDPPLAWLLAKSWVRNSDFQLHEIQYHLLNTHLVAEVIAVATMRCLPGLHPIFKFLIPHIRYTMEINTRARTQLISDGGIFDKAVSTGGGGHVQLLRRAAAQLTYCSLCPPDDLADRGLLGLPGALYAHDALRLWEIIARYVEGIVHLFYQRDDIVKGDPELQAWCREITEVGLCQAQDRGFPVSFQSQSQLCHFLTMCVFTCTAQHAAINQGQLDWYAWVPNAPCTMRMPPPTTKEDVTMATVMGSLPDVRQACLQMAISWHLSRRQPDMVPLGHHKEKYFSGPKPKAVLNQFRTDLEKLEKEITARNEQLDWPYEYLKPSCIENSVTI"}, "source": "PubChem BioAssay AID1671190", "about": "(National Center for Advancing Translational Sciences (NCATS), 2021)", "note": "Values joined by “and” are separate entries in the source; they are usually repeats but may differ in a detail not shown here. Equal values may be shown once. About 6,100 (1.1%) of roughly 580,000 compounds were called active. The shares of active, inactive and inconclusive entries below differ from those in the screen. The call rests on the fitted dose curve; in most records, active means well fitted inhibition curve with a large enough effect; inconclusive means small, poorly fitted or top-dose-only effect, or another doubt; inactive means no such curve, though single readings can be large or run the other way. A potency beside an inconclusive call is a rough fit, not a confirmed value. On the % scale 0 is the no-effect control and ±100 the full control effect; potency means the concentration at half of the fitted maximal effect."}
{"molecular_target": "Polyunsaturated fatty acid lipoxygenase ALOX12 (Homo sapiens) (UniProt P18054)", "test": "Primary qHTS assay for inhibitors of human arachidonate 12S-lipoxygenase (ALOX12): Round 2", "conditions": "purified 12hLO, xylenol orange hydroperoxide absorbance; activity change, negative = inhibition: at 108 µM (top of the series) unless noted", "procedure,_shortened": "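Purified human 12hLO at 150 nM in 25 mM Hepes, 0.01% Triton X-100, pH 7.0, preincubated 15 min at room temperature with compound. Reaction started with 40 uM arachidonic acid, 30 min at room temperature. Hydroperoxide measured by Fe-xylenol orange, 573/405 nm absorbance ratio.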"}
{"smiles": "O=C(/C=C/c1ccc(Cl)cc1)Nc1ccccc1N1CCOCC1", "activity change, negative = inhibition": "inactive: 1.51%"}
{"smiles": "O=Cc1ccc2noc(-c3ccc(Cl)cc3)c2c1", "Potency": "inconclusive: 39.8 µM [inhibitor, partial curve, poor fit]"}
{"smiles": "CCOC(=O)c1sc(NC(=O)c2ccc(=O)[nH]c2)nc1C", "activity change, negative = inhibition": "inactive: -14.7%"}
{"smiles": "COc1cccc(CC(=O)Nc2ccc3c(c2)CN(Cc2ccccc2F)C(=O)C(C)O3)c1", "note": "(stereo unspecified)", "Potency": "inconclusive: 1.78 µM [inhibitor, full curve, poor fit]"}
{"smiles": "Cc1cc(OCC(=O)N2CCc3ccccc3C2)c2c(-c3ccccc3)cc(=O)oc2c1", "activity change, negative = inhibition": "inactive: -5.15%"}
{"smiles": "Cc1cc(Br)ccc1SCC(=O)O", "Potency": "inconclusive: 44.7 µM [inhibitor, partial curve, poor fit]"}
{"smiles": "O=C(c1cccc(F)c1)N1CCCC(Cc2nc(C3CCOCC3)no2)C1", "note": "(stereo unspecified)", "activity change, negative = inhibition": "inactive: 9.32%"}
{"smiles": "COc1ccc(NC(=O)C2CCN(S(=O)(=O)c3ccc(Cl)c(C(F)(F)F)c3)CC2)cn1", "Potency": "inconclusive: 79.4 µM [inhibitor, partial curve, poor fit]"}
{"smiles": "O=C(COC(=O)c1ccc(Cl)nc1)c1ccc2c(c1)OCCO2", "activity change, negative = inhibition": "inactive: -1.44%"}
{"smiles": "COc1ccc(NC(=O)NC2CCN(c3nc(C)cc(C)n3)CC2)cc1", "activity change, negative = inhibition": "inactive: -0.131%"}
{"smiles": "COc1ccc(OC)c(Nc2nc3ccccc3n3c(C)nnc23)c1", "activity change, negative = inhibition": "inactive: -9.36%"}
{"smiles": "C#CCNC(=O)c1csc(-c2ccc(C)cc2)n1", "activity change, negative = inhibition": "inactive: -30.6%"}
{"smiles": "Cn1ncc2c(Nc3ccccc3)nc(N3CCN(C(=O)c4ccco4)CC3)nc21", "activity change, negative = inhibition": "inactive: -25.3%"}
{"smiles": "CN(C)NC(=S)NC(=O)C12CC3CC(CC(C3)C1)C2", "Potency": "inconclusive: 56.2 µM [inhibitor, partial curve, poor fit]"}
{"smiles": "O=C(Nn1c(-c2cccc(Cl)c2)nc2ccccc2c1=O)c1ccccc1Br", "activity change, negative = inhibition": "inactive: 0.899%"}
{"smiles": "O=C(Nc1cc(-c2nc3cc(Cl)ccc3o2)ccc1Cl)c1cccs1", "activity change, negative = inhibition": "inactive: -12%"}
{"smiles": "CCc1ccc(-c2cc(C(=O)Nc3nn[nH]n3)c3ccccc3n2)cc1", "activity change, negative = inhibition": "inactive: 1.28%"}
{"smiles": "COc1cc(CC(=O)OCc2c(F)cccc2Cl)cc(OC)c1OC", "activity change, negative = inhibition": "inactive: 12.3%"}
{"smiles": "COc1cccc(NC(=O)Cc2nnc(SCC(=O)NC3CCCCC3)n2C)c1", "Potency": "inconclusive: 39.8 µM [inhibitor, partial curve, poor fit]"}
{"smiles": "Cc1ccc(OCC(=O)Nc2ccccc2F)cc1", "Potency": "inconclusive: 89.1 µM [inhibitor, single point]"}
{"smiles": "COc1ccc(-c2nc(CN3CCC(C(=O)NCCCN4CCN(c5ccccc5F)CC4)CC3)c(C)o2)cc1OC", "activity change, negative = inhibition": "inactive: -10.5%"}
{"smiles": "Cc1cc(NC(=O)c2cc(F)ccc2Br)n(CCC#N)n1", "activity change, negative = inhibition": "inactive: 21%"}
{"smiles": "CS(=O)(=O)Cc1ccc(C(=O)NNC(=O)c2cc(-c3ccccc3)n[nH]2)cc1", "activity change, negative = inhibition": "inactive: -15.8%"}
{"smiles": "CCN(CC)c1ccc(NC(=O)COc2ccccc2C#N)cc1S(=O)(=O)Nc1ccccc1OC", "Potency": "inconclusive: 44.7 µM [inhibitor, partial curve, poor fit]"}
{"smiles": "CC(C)Cn1c(-c2ccco2)n[nH]c1=S", "Potency": "active: 10 µM"}
{"smiles": "NC[C@@H]1O[C@H](C23CC4CC(CC(C4)C2)C3)Cc2c1ccc(O)c2O", "Potency": "inconclusive: 15.8 µM [inhibitor, partial curve, poor fit] and inconclusive: 44.7 µM [inhibitor, partial curve, poor fit] and inconclusive: 126 µM [inhibitor, single point]"}
{"smiles": "N=c1sccn1CC(=O)Nc1ccc2c(c1)CCC2", "Potency": "inconclusive: 11.2 µM [inhibitor, partial curve, poor fit]"}
{"smiles": "COC(=O)/C=C/c1ccc(OCc2ccc(Br)cc2)c(OC)c1", "Potency": "inconclusive: 50.1 µM [inhibitor, single point]"}
{"smiles": "CC(=O)Nc1ccc(-c2csc(NC(=O)c3nn(C(C)C)c(=O)c4ccccc34)n2)cc1", "activity change, negative = inhibition": "inactive: -3.05%"}
{"smiles": "Cc1ccc(SCc2[nH]nc3c2C(c2ccc(C)o2)C(C#N)=C(N)O3)cc1", "note": "(stereo unspecified)", "Potency": "inconclusive: 44.7 µM [inhibitor, partial curve, poor fit]"}
{"smiles": "COC(=O)c1cc(NC(=O)Cn2nc(C)n3cccc3c2=O)cc(C(=O)OC)c1", "Potency": "inconclusive: 63.1 µM [inhibitor, partial curve, poor fit] and inconclusive: 56.2 µM [inhibitor, partial curve, poor fit]"}
{"smiles": "COc1ccc(N2CCN(C(=O)C(Cc3ccccc3)n3cccc3)CC2)cc1", "note": "(stereo unspecified)", "Potency": "inconclusive: 89.1 µM [inhibitor, partial curve, poor fit]"}
{"smiles": "N#Cc1ccc(CN2CCN(C(=O)c3cn(Cc4ccccc4)nc3-c3cccnc3)CC2)cc1", "activity change, negative = inhibition": "inactive: -21.2%"}
{"smiles": "Cc1ccc(-c2nnn(CC(=O)N(Cc3ccccc3F)C(C(=O)NC3CCCC3)c3ccncc3)n2)o1", "note": "(stereo unspecified)", "Potency": "inconclusive: 17.8 µM [inhibitor, partial curve, poor fit]"}
{"smiles": "Cc1ccc(-c2c(C(=O)NCc3ccccc3)oc(=O)c3ccccc23)cc1", "Potency": "inconclusive: 0.398 µM [inhibitor, full curve, poor fit]"}
{"smiles": "Cc1ccc(-n2cc(CNC(C)c3cnn(C)c3C)c(-c3ccc(F)cc3)n2)cc1", "note": "(stereo unspecified)", "activity change, negative = inhibition": "inactive: 10.8%"}
{"smiles": "CCOC(=O)[C@@H]1[C@H]2COc3ccc(Br)cc3[C@H]2N2C(=O)N(c3ccc(Br)cc3)C(=O)[C@]12C", "Potency": "inconclusive: 6.31 µM [inhibitor, full curve]"}
{"smiles": "O=C(O)COc1ccccc1/C=C1\\SC(=S)N(NC(=O)c2ccccc2O)C1=O", "Potency": "inconclusive: 39.8 µM [inhibitor, partial curve, poor fit]"}
{"smiles": "CCCCn1c(N)c(N(C(=O)CSc2nnnn2-c2ccccc2C)C2CCCC2)c(=O)[nH]c1=O", "Potency": "inconclusive: 100 µM [inhibitor, single point]"}
{"smiles": "COc1ccc(OC)c(NC(=O)COC(=O)c2cc(C)nc3ccccc23)c1", "activity change, negative = inhibition": "inactive: 3.04%"}
{"smiles": "CCN(CC)c1ccc(NC(=O)c2ccccc2Br)cc1S(=O)(=O)Nc1ccccc1OC", "Potency": "active: 35.5 µM"}
{"smiles": "COc1cccc(N2CCN(C(=S)Nc3ccccc3)CC2)c1", "activity change, negative = inhibition": "inactive: 0%"}
{"smiles": "CSCC[C@H](NC(=O)[C@@H]1Cc2ccccc2CN1)C(=O)NC1CCCC1", "activity change, negative = inhibition": "inactive: 12%"}
{"smiles": "CCCCn1cc(C(=O)c2cc(Br)ccc2O)cc(C#N)c1=O", "activity change, negative = inhibition": "inactive: 329%"}
{"smiles": "Cc1ccc(-c2nc3c(Cl)cc(C(F)(F)F)cn3c2Cc2ccsc2)cc1", "Potency": "inconclusive: 39.8 µM [inhibitor, partial curve, poor fit]"}
{"smiles": "CCC(CO)Nc1ccn2nc(-c3cccc(Cl)c3)cc2n1", "note": "(stereo unspecified)", "Potency": "inconclusive: 89.1 µM [inhibitor, single point]"}
{"smiles": "CN(NC(=S)Nc1ccc(OC(F)F)cc1)C(=S)Nc1ccc(OC(F)F)cc1", "activity change, negative = inhibition": "inactive: -7.99%"}
{"smiles": "OCc1ccc(CN2C[C@H](O)C[C@H]2c2nc(Cc3ccc(F)cc3Cl)no2)o1", "Potency": "inconclusive: 25.1 µM [inhibitor, full curve]"}
{"smiles": "CCOc1ccc(NC(=S)NC(=O)c2c(Cl)cnn2CC)c([N+](=O)[O-])c1", "activity change, negative = inhibition": "inactive: 0.673%"}
{"smiles": "O=C(NN=C1c2ccccc2-c2ccccc21)c1ccccc1", "Potency": "inconclusive: 31.6 µM [inhibitor, single point]"}
{"smiles": "CCCCC(CC)COC(=O)CC(C(=O)OCC(CC)CCCC)S(=O)(=O)O", "note": "(stereo unspecified)", "Potency": "inconclusive: 112 µM [inhibitor, partial curve, poor fit]"}
{"smiles": "CNc1ccc(-c2cccc(C(=O)N3CCOCC3)c2)cn1", "Potency": "inconclusive: 50.1 µM [inhibitor, partial curve, poor fit]"}
{"smiles": "Cc1noc(C)c1-c1cc(NC2CC2)ncn1", "Potency": "inconclusive: 7.08 µM [inhibitor, full curve, poor fit]"}
{"smiles": "CSCCC(NS(=O)(=O)c1cccc(C(F)(F)F)c1)C(=O)Nc1ccccc1N1CCCC1", "note": "(stereo unspecified)", "Potency": "inconclusive: 44.7 µM [inhibitor, partial curve, poor fit]"}
{"smiles": "COc1cc(/C=C(\\C#N)C(=O)Nc2cccc(C(=O)O)c2)ccc1OCc1ccc(C)cc1", "activity change, negative = inhibition": "inactive: -3.42%"}
{"smiles": "Cc1ccc(C2/C(=C(/O)c3ccc(OC(C)C)cc3)C(=O)C(=O)N2CCN2CCOCC2)cc1", "note": "(stereo unspecified)", "Potency": "inconclusive: 3.55 µM [inhibitor, full curve, poor fit]"}
{"smiles": "CCOc1ncccc1C(=O)OCc1cn2cc(Cl)ccc2n1", "Potency": "inconclusive: 1.58 µM [inhibitor, full curve, poor fit]"}
{"smiles": "CN(C)CCCN(C(=O)c1ccc2c(c1)CCCC2)c1nc2c(F)cccc2s1", "Potency": "inconclusive: 50.1 µM [inhibitor, partial curve, poor fit]"}
{"smiles": "S=C(NC1CCCCC1)N(CCc1nc2ccccc2[nH]1)C1CCCC1", "Potency": "inconclusive: 89.1 µM [inhibitor, single point]"}
{"smiles": "CCOC(=O)Cn1c(C)[n+](C)c2cc(Cl)c(Cl)cc21", "Potency": "inconclusive: 44.7 µM [inhibitor, partial curve, poor fit]"}
{"smiles": "CCOC(=O)c1sc2ccccc2c1S(=O)(=O)Nc1cccc(C(F)(F)F)c1", "Potency": "inconclusive: 126 µM [inhibitor, partial curve, poor fit]"}
{"smiles": "COc1ccc(C2CC(=O)C=C(NCc3ccccc3)C2)cc1", "note": "(stereo unspecified)", "Potency": "inconclusive: 79.4 µM [inhibitor, partial curve, poor fit]"}
{"smiles": "Cc1c(Cl)cccc1NC(CC(=O)c1ccccc1)C(=O)O", "note": "(stereo unspecified)", "Potency": "inconclusive: 17.8 µM [inhibitor, full curve, poor fit]"}
{"smiles": "Cc1cc(F)cc(CN2CCc3nc(C(=O)Nc4ccccc4)oc3CC2)c1", "Potency": "inconclusive: 31.6 µM [inhibitor, full curve, poor fit]"}
{"smiles": "c1ccc(-c2c[nH]c(-c3ccccc3)c2)cc1", "Potency": "inconclusive: 12.6 µM [inhibitor, full curve, poor fit]"}
{"smiles": "CN(C(=O)CSc1nnc(-c2ccccc2F)o1)C1(c2ccccc2Cl)CCCCC1=O", "note": "(stereo unspecified)", "Potency": "inconclusive: 22.4 µM [inhibitor, partial curve, poor fit]"}
